Results published in PubChem BioAssay AID1488 (Vanderbilt High Throughput Screening Facility, 2009).
Among all 1,700 compounds or so, about 310 (18%) were called active. Inconclusive results, whose numbers are uncertain, are shown with a selection of clear calls.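 How the source made its calls: active means fluorescence change differs from the solvent-only DMSO control mean at a set confidence level in both duplicate runs; inconclusive means differs from solvent-only control mean in just one of two runs; inactive means the rest.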

Amino acid sequences for entries named in this document (tags omitted). A change or cut given only in a name is not applied to a line headed by its entry.
UniProt P08482: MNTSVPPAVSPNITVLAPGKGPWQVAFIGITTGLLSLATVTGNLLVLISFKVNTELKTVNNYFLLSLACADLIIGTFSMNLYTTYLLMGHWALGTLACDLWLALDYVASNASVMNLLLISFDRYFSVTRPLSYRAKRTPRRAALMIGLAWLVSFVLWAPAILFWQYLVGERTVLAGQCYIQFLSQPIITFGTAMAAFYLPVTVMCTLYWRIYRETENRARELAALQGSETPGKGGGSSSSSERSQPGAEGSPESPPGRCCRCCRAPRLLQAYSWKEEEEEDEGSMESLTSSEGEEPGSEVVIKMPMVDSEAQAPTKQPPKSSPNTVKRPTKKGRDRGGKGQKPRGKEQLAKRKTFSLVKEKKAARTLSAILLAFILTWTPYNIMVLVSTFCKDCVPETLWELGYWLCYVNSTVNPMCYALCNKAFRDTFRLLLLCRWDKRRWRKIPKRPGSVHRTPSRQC

Biological target: Muscarinic acetylcholine receptor M1 (Rattus norvegicus) (UniProt P08482)
Assay: rat M1 muscarinic receptor agonists, confirmation, CHO-M1 cells, Fluo-4 calcium, duplicate retest (AID 1488);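 further: an EC20 dose of acetylcholine follows compound addition during the same imaging run; raw fluorescence intensity difference in instrument units with no normalization to controls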
Conditions: Fluo-4 calcium fluorescence, agonist mode, at 10 µM, actives lie on both sides

Fluorescence change (max-min), inactive:
CC(C(=O)NCC1CCCO1)n1cccc1C(=O)c1ccccc1 (stereo not given) -10.5
O=C(C1CCCN(S(=O)(=O)c2cccc3nsnc23)C1)N1CCN(c2ccccn2)CC1 (stereo not given) -7.62
CC(=O)c1cc2c(cc1NC(=O)Nc1cccc(Cl)c1)OCCO2 42
Cc1ccc(Cl)cc1N1CCN(C(=O)c2cc3c(=O)n(C)c4ccccc4c3n2C)CC1 -11.4
CCc1ccc(CNCc2cccnc2)cc1 -13.7
COc1ccc(CCNc2oc(COc3ccccc3F)nc2C#N)cc1OC -28
Cc1cc(C)n2nc(SCC(=O)N(C)Cc3ccccc3)nc2n1 -17.8
Cc1ccc2c(C)nc(Nc3nc(CSc4nnnn4-c4ccccc4)cc(=O)[nH]3)nc2c1 -12.7
CCC(C(=O)OC)n1cnc2c(nnn2-c2ccc(OC)cc2)c1=O (stereo not given) -3.1
COC(=O)c1ccc(-c2sc3nc(N4CCOCC4)c4c(c3c2N)CCCC4)o1 4.46
CCOC(=O)C1CCCN(C(=O)c2cc3nc(-c4cccc(OC)c4)cc(C(F)(F)F)n3n2)C1 (stereo not given) -14.6
CCn1c(C(=O)N2CCC(C(=O)N3CCN(c4ccccn4)CC3)CC2)cc2sccc21 -18.8
CCOC(=O)c1ccc(Nc2nnc(C(C)(C)C)c(=O)[nH]2)cc1 -16.6
COC(=O)c1ccc(-c2ccco2)n1Cc1nc(-c2ccc(OC)c(OC)c2)oc1C -19.3
O=C1N(CCCCN2C(=O)C3(OCCO3)c3ccccc32)c2ccccc2C12OCCO2 -0.347
CCc1ccc(S(=O)(=O)NCc2cn3ccsc3n2)s1 -0.704
CN1/C(=N\O)c2cccc3cccc1c23 42
Cc1cccc2cc3c(N)c(C#N)sc3nc12 8.88
O=C(CC1Nc2ccccc2NC1=O)Nc1ccccc1 (stereo not given) -7.08
O=C(NCCc1cccc(Cl)c1)c1cccnc1 -1.46
Cc1nnc(NC(=O)C2CCCN(S(=O)(=O)c3ccccc3C(F)(F)F)C2)s1 (stereo not given) -30.4
C=CCn1c(=O)c2c(nc3n2CC(C)CN3c2cccc(OC)c2)n(C)c1=O (stereo not given) -12.7
O=C(Nc1nc(-c2cc3ccccc3oc2=O)cs1)c1ccco1 2.61
COc1ccc(-c2cc(C(F)(F)F)nc(N3CCCCCC3)n2)cc1 -3.58
Cc1ccc(OCCN2CCN(C(=O)CCC(=O)Nc3nnc(C(C)C)s3)CC2)cc1 5.05
Cc1cc(C)nc(/N=c2/ssnc2Cl)c1 -7.89
CC(=O)N1CCc2cc(S(=O)(=O)NCCCOC(C)C)ccc21 -9.78

Fluorescence change (max-min), inconclusive:
CCOC(=O)c1coc(CNC(=O)c2c(C)oc3c2CCCC3)c1 -15.5
CC1CCCCN1C(=O)Nc1cccc(Cl)c1 (stereo not given) -25.5
CCN(C(=O)COc1cc(=O)n(CC)c2ccccc12)c1cc(Cl)ccc1OC -20.1
Cc1nc2ccccc2c(=O)n1/N=C/c1cn(-c2ccccc2)nc1-c1cccs1 -21.3
O=C(NCC1COc2ccccc2O1)C1CCCN(S(=O)(=O)c2cccc3nsnc23)C1 (stereo not given) -21.1
Cc1cc(-c2ccccc2)n(-c2ccc(C(=O)N3CCN(c4ncccn4)CC3)cc2)n1 -25.1
CCCCC(=O)Nc1ccc2oc(-c3ccncc3)nc2c1 -25.1
Nc1ccc2nc(-c3ccc(Cl)cc3)[nH]c2c1 -26.3
CCOc1ccc2nc(N3CCC(C(=O)N4CCN(C(=O)c5ccco5)CC4)CC3)sc2c1 -20.2
COc1ccc2cc3cc(C(=O)NCc4ccc5c(c4)OCO5)oc3nc2c1 -20
COc1ccccc1N1CCN(C(=O)c2cn(-c3ccccc3)nc2-c2cccnc2)CC1 -21.1
Clc1ccc(Cn2ncc3c(N4CCOCC4)ncnc32)cc1 63.5
Cc1ccc(-n2nc(-c3cccnc3)cc2C(=O)N2CCOCC2)c(C)c1 -33.3
O=C(NCc1cccs1)Nc1ccc2c(c1)OCO2 -16.8
CCOC(=O)N1CCN(c2nc3ccccc3nc2C(C#N)C(=O)NCCc2ccccc2)CC1 (stereo not given) 63.2
O=C(COC(=O)c1c2c(nc3ccccc13)CCCC2)Nc1ccc2c(c1)OCO2 -24.1
COc1ccccc1N1CCN(c2ncnc3nc[nH]c23)CC1 -16.1
COc1cccc2cc(-c3nnc(SCC(=O)Nc4nc(C)cs4)n3C)oc12 -17.9
COc1cccc(CNn2c(-c3cccc(C)c3)nc3ccccc3c2=O)c1O -24
CCOC(=O)C1=C(N)Oc2cc(C)n(CCc3ccc(OC)c(OC)c3)c(=O)c2C1c1cccnc1 (stereo not given) -20.1
Cc1nnc(NC(=O)C2C3C=CC(O3)C2C(=O)O)s1 (stereo not given) -21.9
O=C(Nc1ccc(Cl)cc1)NC1CCCC1Cc1ccco1 (stereo not given) -7.8
O=C(COC(=O)CN1C(=O)C2CC=CCC2C1=O)Nc1cc(C(F)(F)F)ccc1N1CCOCC1 (stereo not given) -37
COc1ccc(CC(C(=O)Nc2cc(C)ccc2C)/C(N)=N/O)cc1 (stereo not given) -24.1
Cc1onc(-c2ccccc2Cl)c1C(=O)Nc1cccc(-c2nc3ncccn3c2C)c1 -25.2
CCCCC(=O)Nc1ccc(C(=O)NCc2ccncc2)cc1 -24.4
CCOC(=O)C1CCCN(C(=O)Cn2cccc2C(=O)c2ccccc2)C1 (stereo not given) -22.2
c1ccc2c(c1)CCCN2Cc1nnc2n1CCCCC2 -12.5
COC(=O)CSc1nnc(-c2ccncc2)n1N -22.5
O=c1c(-c2nc3ccccc3o2)c2oc3ccccc3n2c2ccccc12 -29.2
O=C(Nc1cccc(-c2cnc3ccccc3n2)c1)c1ccco1 -24.3
CCn1c(=O)cc(OCC(=O)NCCCN2CC(C)CC(C)C2)c2ccccc21 (stereo not given) -24.8
CCOC(=O)C1CCCN(C/C(O)=C(\C#N)c2nc(-c3ccc(Cl)cc3)cs2)C1 (stereo not given) 48.6
COc1cccc(-c2cc(C(F)(F)F)n3ncc(C(=O)NCC4CCCO4)c3n2)c1 (stereo not given) -14.5
O=C(CSc1nc2[nH]ncc2c(=O)n1-c1ccccc1)c1ccc2c(c1)OCCO2 -19.9
CC(=O)N1C(=O)C(=C2C=C(C)OC(C)=C2)c2ccccc21 66.3
COc1ccc(S(=O)(=O)Cc2ccc(C(=O)NCCc3ccc(S(N)(=O)=O)cc3)o2)cc1 -18.8
CCOc1ccc(C2C(C#N)=C(N)N3C(=C2C#N)Sc2ccccc23)cc1 (stereo not given) 71.5
COc1ccc(S(=O)(=O)C(C#N)c2nc3ccccc3nc2N2CCC(C)CC2)cc1 (stereo not given) -18.1
O=C(CSc1n[nH]c(-c2ccccc2O)n1)N1CCCc2ccccc21 -16.4
Nc1c(C(=O)NCC2CCCO2)c2nc3ccccc3nc2n1-c1ccccc1 (stereo not given) -21.4
Cc1ccc(C)c(N2CCN(C(=O)CN(C)S(=O)(=O)c3ccc4c(c3)CCC(=O)N4)CC2)c1 -24.7
O=C1CCC(=O)N1CNc1ccc(Oc2ccccc2)cc1 -20.7
O=C(NCCc1ccc(Cl)cc1)C1CCN(S(=O)(=O)N2CCCCC2)CC1 -18.5
Nc1c(C(=O)c2ccccc2)oc2ccc(Br)cc12 -16.6
CC(=O)c1ccc(NC(=O)CSc2nnc(-c3ccoc3C)n2Cc2ccccc2)cc1 -22.2

Pulled by structure from above:
Fluorescence change (max-min), inconclusive:
CCCCC(=O)Nc1ccc(C(=O)NCc2ccncc2)cc1 -24.4
O=C(NCC1COc2ccccc2O1)C1CCCN(S(=O)(=O)c2cccc3nsnc23)C1 (stereo not given) -21.1
CCOC(=O)C1=C(N)Oc2cc(C)n(CCc3ccc(OC)c(OC)c3)c(=O)c2C1c1cccnc1 (stereo not given) -20.1

Next part.

Fluorescence change (max-min), active:
COc1ccccc1C1C=C(c2ccc(Cl)cc2)Nc2nc(NS(C)(=O)=O)nn21 (stereo not given) 88
Cc1ccc(OC(C)c2nnc(N)s2)cc1Cl (stereo not given) -19.5
CN(C)/C=c1\sc2c(C#N)cc(C(=O)c3ccc(Br)cc3)n2c1=O 278
CCOc1ccc(C2C=C(c3ccc(F)cc3)Nc3ncnn32)cc1 (stereo not given) 146
O=C(c1ccncc1)c1ccc(N2CCN(C3CC(=O)N(Cc4ccccc4)C3=O)CC2)cc1 (stereo not given) -24.6
CCCN1CC=C2C(C#N)=C(N)C(C#N)(C#N)C(c3cccc(OC)c3OC)C2C1 (stereo not given) 666
CC(=O)N1CCN(c2ccccc2NC(=O)COc2cc(C)ccc2C(C)C)CC1 -26.1
CCN(CC)c1ccc2cc(C(=O)Nc3ccccn3)c(=O)oc2c1 964
CCCc1nc(SCc2cccnc2)c2c(=O)n(C)c(=O)n(C)c2n1 -24.7
CCOC(=O)C1CCCN(C(=O)CN2CCN(Cc3ccc(Cl)cc3)C2=O)C1 (stereo not given) 202
COc1ccccc1N1CCN(C(=O)CCCC2=NS(=O)(=O)c3ccccc3N2)CC1 -21.5
Cc1nnc(C)n1/N=C/c1cc(Br)cc(Br)c1O 143
OCCCc1nc2n(n1)C(c1ccccc1)C=C(c1ccccc1)N2 (stereo not given) 74.3
CCOc1cccc(C2C(C(=O)c3ccc(C)o3)=C(O)C(=O)N2c2nccs2)c1 (stereo not given) 822
Cc1cccc(-n2c(N)cc(=O)nc2SCC(=O)Nc2ccccc2)c1 -24.1
Cc1cc(C)c2cc3c(ccn3C3OC[C@H](O)[C@H](O)[C@H]3O)cc2n1 (stereo not given in full) 201
O=c1c(O)c(-c2ccc(O)cc2O)oc2cc(O)cc(O)c12 73.5

An excerpt from above in order of molecular weight, low to high.
Fluorescence change (max-min), active:
OCCCc1nc2n(n1)C(c1ccccc1)C=C(c1ccccc1)N2 (stereo not given) 74.3
Cc1nnc(C)n1/N=C/c1cc(Br)cc(Br)c1O 143
O=C(c1ccncc1)c1ccc(N2CCN(C3CC(=O)N(Cc4ccccc4)C3=O)CC2)cc1 (stereo not given) -24.6
